We go through 42 sequences from publication PMC7819943, “Rice protein-binding microarrays: a tool to detect cis-acting elements near promoter regions in rice”.

By UniProt entry, the sequences of proteins in these tests, tags left out.
UniProt Q0JBA9, entry or part of it: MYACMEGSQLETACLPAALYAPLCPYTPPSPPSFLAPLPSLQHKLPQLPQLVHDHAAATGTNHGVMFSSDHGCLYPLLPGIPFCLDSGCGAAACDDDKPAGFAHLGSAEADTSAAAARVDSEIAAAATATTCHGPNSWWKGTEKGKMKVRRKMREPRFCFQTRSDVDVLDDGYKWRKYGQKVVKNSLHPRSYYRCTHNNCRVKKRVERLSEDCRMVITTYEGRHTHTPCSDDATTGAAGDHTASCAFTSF

The other results are listed elsewhere or left out.

This test concerns the target OsWRKY34 (Oryza sativa, UniProt Q0JBA9 1-250). The test can be described thus: protein-binding microarray (RPBM); PBS, 2% BSA, 51.3 ng/ul salmon testes DNA, 50 uM zinc acetate, 200 nM TF, 25 C, 1 h; high values mean tight binding. The settings on record: protein: recombinant; tags: N-terminal polyhistidine and DsRed monomer fusion (pET32a); label: CyDye5-dUTP incorporated in the synthesized complementary strand; 3' TTTTT single-stranded linker to array surface; dsDNA, one strand shown. Summed up: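 The binding signal is fluorescence intensity per array feature (arbitrary units). Readings came from an Axon 4000B scanner after a washed, 2% BSA-blocked, double-stranded custom Agilent array had been incubated for 1 h at 25 °C with 200 nM protein and 50 µM zinc acetate. The protein was a Ni–NTA-purified transcription factor fused N-terminally to polyhistidine and DsRed, expressed in E. coli BL21-CodonPlus.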
For “ATCTTTCTCCGGTCAAGTTCTAGCACAACAAAACACAAGCCGGAGTCACCTAGTGCAG”, the binding signal was 8060 fluorescence intensity (a.u.).
Take “CTGCTTGGCTGCCATCCCCTGCTATTCCCCAACCTCCTCCCGGAGTCACCTAGTGCAG”: the binding signal is 8340 fluorescence intensity (a.u.).
As for “GGTAGCCGGGAGGGAGGGGAAGCGGCGGCGTTTGTTTCTGCGGAGTCACCTAGTGCAG”, the binding signal was 10300 fluorescence intensity (a.u.).
For “TAAGTCTATTTTACATCCCTATTCTTTCGACCGTGGCATACGGAGTCACCTAGTGCAG” the value was 8970 fluorescence intensity (a.u.).
For “CTTTTTTTTCTTTTTTCTTTTTTCTTTTTTTTCTTTTGAGCGGAGTCACCTAGTGCAG” the value was 12300 fluorescence intensity (a.u.); for “CTACCGACCACACCCCGTCCAGTCCGGTCTCCATCGCTTTCGGAGTCACCTAGTGCAG”, 8530 fluorescence intensity (a.u.).
The figure for “TTTTGCTATCTTCTCGCTGCGATCGCCACAAATTGACATGCGGAGTCACCTAGTGCAG” is 9570 fluorescence intensity (a.u.); for “CATCCCTCTTGGTCCCGCACTCTCTCGCGTGGAGCTTATCCGGAGTCACCTAGTGCAG” it is 8830 fluorescence intensity (a.u.).
“AGAGGAGGAGAGTGGTGGTGGTGCGAGAGGGAGGGAGATGCGGAGTCACCTAGTGCAG”: the binding signal was 9230 fluorescence intensity (a.u.).
The figure for “TACAACTCTGTTTCTTACTTTCTGTTTGCGTCTTTGCCTTCGGAGTCACCTAGTGCAG” is 8050 fluorescence intensity (a.u.); for “CGTCCTGTTACAGAATCTACTTGTATCGCGTAATATCGAGCGGAGTCACCTAGTGCAG” it is 8980 fluorescence intensity (a.u.); for “GGCGACCTGCGCGCGCTCCATTGCTGCTTCCGGCGCCGTGCGGAGTCACCTAGTGCAG” it is 9220 fluorescence intensity (a.u.).
For “CGCTGTCGATTCCGCGTTCATCGATTCGGCTTCCGCCGTCCGGAGTCACCTAGTGCAG” the value was 9200 fluorescence intensity (a.u.).
The figure for “CGTCCGATCCATCTCCTCTCCGTTTCTCTCAGCTACTCTCCGGAGTCACCTAGTGCAG” is 8200 fluorescence intensity (a.u.); for “CCTGTTCTTCGCTCGATCCTCCAATTTCCTCTCCCAAATCCGGAGTCACCTAGTGCAG” it is 11200 fluorescence intensity (a.u.); for “GTCTTCTCTGTTCTTCTTCAGATGGCGAAAGCTCTCACCACGGAGTCACCTAGTGCAG” it is 10400 fluorescence intensity (a.u.).
As for “GCCTGTTATTATACCTGCTCTTAGAGGACCTATGTGAACACGGAGTCACCTAGTGCAG”, the binding signal was 8760 fluorescence intensity (a.u.).
The figure for “TGTTTGGTGCTGTCGGTACATGGGTGGTGGTTTTTTCTTTCGGAGTCACCTAGTGCAG” is 17500 fluorescence intensity (a.u.); for “GGAATCTGGGAGGTGGGTGGGCCCCACGGCGGAGACTCCGCGGAGTCACCTAGTGCAG” it is 17200 fluorescence intensity (a.u.).
For “CTGTCATTGTCGCCCACTGCCGATCCACCCTTCGCCCAAGCGGAGTCACCTAGTGCAG” the value was 16000 fluorescence intensity (a.u.); for “GTCGGGCGGGAGCGGTGCAGGGTGGAGGAGGTGGGCGGGGCGGAGTCACCTAGTGCAG”, 22900 fluorescence intensity (a.u.).
On to “CACCTTTTCGTTTATACTTATACTTAAAATTTAAATTTTTCGGAGTCACCTAGTGCAG”, for which the binding signal was 8370 fluorescence intensity (a.u.).
With “TCTCTTATGATTTGTTTGTCTGATACTCTGTCTGATCGGTCGGAGTCACCTAGTGCAG”, the binding signal is 8640 fluorescence intensity (a.u.).
In the case of “ATTTGCACCTGTTGAATGGGCATGTCTTGTGTGTGTTTCTCGGAGTCACCTAGTGCAG”, the binding signal is 8400 fluorescence intensity (a.u.).
For “TCAATCTGTATAATTATTTTTTTTTCTATATTTAATACTGCGGAGTCACCTAGTGCAG” the value was 8310 fluorescence intensity (a.u.); for “GAGGTGGAAATGGGAGGGGAAGAAGAGGCTGACATGGTGACGGAGTCACCTAGTGCAG”, 8440 fluorescence intensity (a.u.).
For “GAGCTTTTTTATTCTCTGGATGCCATATTTTTTACAGTTACGGAGTCACCTAGTGCAG” the value was 8740 fluorescence intensity (a.u.); for “CTTACTTTAAGGTGTGAGATTCATTCCTATCTCATTTTATCGGAGTCACCTAGTGCAG”, 10500 fluorescence intensity (a.u.); for “GTGTAGCTTCAACAGTTTGCCCTACCTCTTTACTCACATCCGGAGTCACCTAGTGCAG”, 10800 fluorescence intensity (a.u.).
Take “CACATGTTAATACATCTTCTCTATTTTGTTGATTTTTTCACGGAGTCACCTAGTGCAG”: the binding signal was 9770 fluorescence intensity (a.u.).
The figure for “CAGGCCCTTTCTATGCTATCCTCCTTTTTTTTTTGTCAACCGGAGTCACCTAGTGCAG” is 10200 fluorescence intensity (a.u.); for “TGTGTGTGTTTTAATTAATTAACATTTATATAAATATGAACGGAGTCACCTAGTGCAG” it is 8540 fluorescence intensity (a.u.); for “GGCGGCTAAGTGGGTTTTTTCGCGTTCCGCGCGGAGAAGACGGAGTCACCTAGTGCAG” it is 9590 fluorescence intensity (a.u.).
“CAGGCCAGCATTTTGTTGTAGTAGCACTGTCTGTATGTTCCGGAGTCACCTAGTGCAG”: the binding signal is 9010 fluorescence intensity (a.u.).
In the case of “GCAACCAACATCCCGGCGGCGAGCTCGTACGTACCAAATCCGGAGTCACCTAGTGCAG”, the binding signal is 10800 fluorescence intensity (a.u.).
The figure for “CCGCCGCCGCCGGGCCGCCGCCGCCTCGTGCACTGCCTTCCGGAGTCACCTAGTGCAG” is 8160 fluorescence intensity (a.u.).
The figure for “AATTCCACTTACAATCATTTTTATTTCTTTACAAAATGCTCGGAGTCACCTAGTGCAG” is 8670 fluorescence intensity (a.u.); for “AACCCGCTATGTATCATGCCAATTTTTTTAATCCACATGACGGAGTCACCTAGTGCAG” it is 8760 fluorescence intensity (a.u.); for “CAGGTGGACGGCGGTGGTGGTGGTGGTGGTGGCGGCGATGCGGAGTCACCTAGTGCAG” it is 17000 fluorescence intensity (a.u.).
The figure for “TCGAAACATAAGTATATGTTGGTATGTCCACGGTTTCTTTCGGAGTCACCTAGTGCAG” is 8380 fluorescence intensity (a.u.); for “ATAGCCACCACGACCCTCCGATTTTACGGTCGGCCCAGCCCGGAGTCACCTAGTGCAG” it is 8360 fluorescence intensity (a.u.).
For “CAAGCGCCGCATCTGCTCTCGAGTTTTCCGCTTCCGCAAACGGAGTCACCTAGTGCAG”, the binding signal was 8440 fluorescence intensity (a.u.).
